US20190082696A1, “METHOD FOR CONTROLLING PESTS OF PLANTS” (BASF SE, priority 2016, published 2019)
Some entries share one result that the patent states for a list of compounds. For part of these data: At least one structure is not confirmed: it was looked up by name or label, or the drawing left a doubt.

Columns and labels:
Type in all cases: in vivo
[1] = test system: Diamond Back Moth (Plutella xylostella); test: B.1 Diamond back moth leaf-dip test on cabbage leaves; settings: 300 ppm; 3rd instar larvae; 72 hours after treatment
[2] = test system: green peach aphid (Myzus persicae); test: B.2 Green peach aphid systemic test, artificial diet in 96-well plates; settings: 2500 ppm; adult aphids; 3 days
[3] = test system: vetch aphid (Megoura viciae); test: B.3 Vetch aphid test on broad bean leaf disks; settings: 2500 ppm; adult aphids; 5 days
[4] = test system: tobacco budworm (Heliothis virescens); test: B.4 Tobacco budworm test, insect diet with eggs; settings: 2500 ppm; egg and larval mortality; 5 days
[5] = test system: boll weevil (Anthonomus grandis); test: B.5 Boll weevil test, insect diet with eggs; settings: 2500 ppm; egg and larval mortality; 5 days
[6] = test system: Orchid thrips (Dichromothrips corbetti); test: B.7 Orchid thrips floral-immersion test; settings: 300 ppm; adult thrips; 72 hours after treatment
[7] = test system: Rice Green Leafhopper (Nephotettix virescens); test: B.8 Rice green leafhopper test on sprayed rice seedlings; settings: 300 ppm; adults; after 72 hours
[8] = test system: Red Spider Mite (Tetranychus kanzawai); test: B.9 Red spider mite test on sprayed cowpea beans; settings: 300 ppm; 72 hours after treatment
[9] = test system: Southern Armyworm (Spodoptera eridania); test: B.10 Southern armyworm test on sprayed lima bean plants; settings: 10 ppm; larvae; 4 days after treatment
[10] = test system: Green Soldier Stink Bug (Nezara viridula); test: B.11 Green soldier stink bug test on soybean pods; settings: 300 ppm; late 3rd instar; after 5 days
[11] = test system: Brown Marmorated Stink Bug (Halyomorpha halys); test: B.13 Brown marmorated stink bug test on peanuts and soybean seeds; settings: 100 ppm; adult stage; after 5 days

Measured: mortality in comparison with untreated controls

CCSCC(=O)N1CC2(C1)OCc1cc(C3=NOC(c4cc(Cl)c(F)c(Cl)c4)(C(F)(F)F)C3)ccc12 (stereo not drawn) [Compound I-7]
at least 75%: [1] | [2] | [3] | [4] | [5] | [6] | [7] | [8] | [9] | [10] | [11]

O=C(c1cc2n(n1)CCC2)N1CC2(C1)OCc1cc(C3=NOC(c4cc(Cl)c(F)c(Cl)c4)(C(F)(F)F)C3)ccc12 (stereo not drawn) [Compound I-19]
at least 75%: [1] | [2] | [3] | [4] | [5] | [6]

O=C(c1cnccn1)N1CC2(C1)OCc1cc(C3=NOC(c4cc(Cl)c(F)c(Cl)c4)(C(F)(F)F)C3)ccc12 (stereo not drawn) [Compound I-14]
at least 75%: [1] | [2] | [3] | [4] | [5] | [6] | [7] | [8]

O=C(c1cc2n(n1)CCOC2)N1CC2(C1)OCc1cc(C3=NOC(c4cc(Cl)c(F)c(Cl)c4)(C(F)(F)F)C3)ccc12 (stereo not drawn) [Compound I-18]
at least 75%: [1] | [2] | [4] | [5] | [6]

CSCC(=O)N1CC2(C1)OCc1cc(C3=NOC(c4cc(Cl)c(F)c(Cl)c4)(C(F)(F)F)C3)ccc12 (stereo not drawn) [Compound I-6]
at least 75%: [1] | [2] | [3] | [4] | [5] | [6] | [7] | [8] | [9] | [10] | [11]

O=C(c1cncnc1)N1CC2(C1)OCc1cc(C3=NOC(c4cc(Cl)c(F)c(Cl)c4)(C(F)(F)F)C3)ccc12 (stereo not drawn) [Compound I-15]
at least 75%: [1] | [2] | [3] | [4] | [5] | [6] | [7] | [8] | [10]

NC(=S)NN=CC(=O)N1CC2(C1)OCc1cc(C3=NOC(c4cc(Cl)c(F)c(Cl)c4)(C(F)(F)F)C3)ccc12 (stereo not drawn) [Compound I-17]
at least 75%: [1] | [2] | [4] | [5] | [6]

CC(C)C(=O)N1CC2(C1)OCc1cc(C3=NOC(c4cc(Cl)c(F)c(Cl)c4)(C(F)(F)F)C3)ccc12 (stereo not drawn) [Compound I-13]
at least 75%: [1] | [2] | [3] | [4] | [5] | [6] | [7] | [8] | [10] | [11]

CON=CC(=O)N1CC2(C1)OCc1cc(C3=NOC(c4cc(Cl)c(F)c(Cl)c4)(C(F)(F)F)C3)ccc12 (stereo not drawn) [Compound I-20]
at least 75%: [1] | [2] | [3] | [4] | [5] | [6] | [7] | [8] | [10] | [11]

O=C(C=NOCc1cccc(Cl)c1)N1CC2(C1)OCc1cc(C3=NOC(c4cc(Cl)c(F)c(Cl)c4)(C(F)(F)F)C3)ccc12 (stereo not drawn) [Compound I-16]
at least 75%: [1] | [4] | [5] | [6] | [7]

C[S+]([O-])CC(=O)N1CC2(C1)OCc1cc(C3=NOC(c4cc(Cl)c(F)c(Cl)c4)(C(F)(F)F)C3)ccc12 (stereo not drawn) [Compound I-10]
at least 75%: [1] | [2] | [3] | [4] | [5] | [6] | [7] | [8] | [10] | [11]

CCCC(=O)N1CC2(C1)OCc1cc(C3=NOC(c4cc(Cl)c(F)c(Cl)c4)(C(F)(F)F)C3)ccc12 (stereo not drawn) [Compound I-11]
at least 75%: [1] | [2] | [3] | [4] | [5] | [6] | [7] | [8] | [9] | [10] | [11]

O=C(C1CC1)N1CC2(C1)OCc1cc(C3=NOC(c4cc(Cl)c(F)c(Cl)c4)(C(F)(F)F)C3)ccc12 (stereo not drawn) [Compound I-12]
at least 75%: [1] | [2] | [3] | [4] | [5] | [6] | [7] | [8] | [9] | [10] | [11]

CC[S+]([O-])CC(=O)N1CC2(C1)OCc1cc(C3=NOC(c4cc(Cl)c(F)c(Cl)c4)(C(F)(F)F)C3)ccc12 (stereo not drawn) [Compound I-9]
at least 75%: [1] | [2] | [3] | [4] | [5] | [6] | [7] | [8] | [9] | [10] | [11]

CON=C(C)CC(=O)N1CC2(C1)OCc1cc(C3=NOC(c4cc(Cl)c(F)c(Cl)c4)(C(F)(F)F)C3)ccc12 (stereo not drawn) [Compound I-4]
at least 75%: [1] | [2] | [3] | [4] | [5] | [6] | [7] | [8] | [10]
